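Assay of Toxoplasma gondii numbers, read through their beta-galactosidase reporter with a colour substrate. Compounds at 10 µM. Higher reads as fewer parasites (inferred from which compounds were picked for retests). About 67,000 compounds were tested under these conditions; 0.38% (about 260) showed 50% or more at least once.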

Results are given as percent effect. How 0% and 100% were set is not recorded. Most values in the screen are low, and negative values occur. Compounds were drawn at random from those tested, without regard to their results.

structure,Percent Effect
COC(=O)Cn1c(=O)nc2n1C(=O)N(c1ccc(F)cc1)C2,-18.7
Cc1cnn(CCNCc2ccc(OCc3ccccn3)cc2)c1,-1.512
CCC(COC)NC(=O)N1CCC(n2ccc(C(F)(F)F)n2)CC1 (stereo not given),1.215
Cn1ccnc1C(=O)N1CCOC(Cc2ccccc2Cl)C1 (stereo not given),-6.537
CCNC(=O)C1(Cc2cc(-c3ccccc3)no2)CCCN(C(C)C)C1 (stereo not given),-7.542
CC(C)(CNC(=O)NCCc1ccn(-c2ccccc2)n1)C(N)=O,-5.843
CCc1cnccc1C(=O)NC1CCN(C(=O)OC)CC1,11.58
CC(C)C(=O)N1CCN(Cc2csc(-c3ccccn3)n2)CC1,13.37
CC(=O)Nc1nc(-c2ccc(F)cc2)c[nH]1,-8.592
Cc1nc(CNC(=O)NC(C)c2ccc3c(c2)OCCCO3)cs1 (stereo not given),2.083
CCOc1ccc(CC(CNC(=O)c2ccc(C)s2)C(N)=O)cc1 (stereo not given),1.853
O=C(NCc1cc(-c2ccccc2)no1)NC1CCCCNC1=O (stereo not given),-5.169
c1ccc(CN2CCOC3(CCCN(c4nccs4)C3)C2)cc1 (stereo not given),5.634
O=C(NC(c1ccccc1)c1cccnc1)C1CC1 (stereo not given),-42.18
Cc1cccc(CNC2CCN(CCc3ccncc3)CC2)c1C,-2.714
Cc1cc(CS(=O)(=O)N(C)C(C)c2ccc(F)cc2)on1 (stereo not given),6.195
CC(=O)N1N=C(c2ccncc2)OC1C(=O)N(C)CCc1ccccc1 (stereo not given),6.534
CCCC(C)CS(=O)(=O)NCCc1csc(N2CCCC2)n1 (stereo not given),-0.1873
Cc1ccc(C(=O)N2CCC(C(F)(F)F)CC2)cc1N1CCNC1=O,3.806
O=C(O)C(F)(F)F.[H][C@@]12C[C@H](C(=O)N(C)C)CN(Cc3ccc4c(c3)OCO4)[C@]1([H])CCO2,-17.19
C=C(C)COc1cccc(C(=O)NCCCc2nnn[nH]2)c1,-7.219
CN(Cc1cccc(O)c1)Cc1cnn(C)c1,4.246
Cc1ccccc1C1CCN(CCNC(=O)CS(C)(=O)=O)C1 (stereo not given),-0.08878
CC1CN(c2ccc(CNC(=O)NCCn3ccnc3)cn2)CCO1 (stereo not given),3.481
N[C@H]1CC[C@@H](Nc2nccc(CCC(F)(F)F)n2)CC1,-6.456
O=C(O)C(F)(F)F.[H][C@@]12C[C@H](C(=O)N3CCCO3)CN(CCc3ccccc3)[C@]1([H])CCO2,-15.85
Nc1ccnc(N2CCC(Cc3ccccc3Cl)(C(=O)O)CC2)n1,-0.04005
Cc1cnccc1NCCNC(=O)C1CCCN(Cc2ccco2)C1 (stereo not given),0.1655
Cc1ccc2c(n1)N(CC1CC1)CCN(C(=O)NC1CC1)C2.O=C(O)C(F)(F)F,3.38
Cc1cc(C)n(C2CCN(C(=O)c3cn4ccsc4n3)C2)n1 (stereo not given),10.43
Cn1nc2c(cc1=O)CN(Cc1coc(-c3cccc(F)c3)n1)CC2,15.25
[H][C@]12CC[C@@]3(N=C(C)N(C)C3=O)[C@@]1([H])CN(C(=O)NCC(C)C)C2,0.2463
CC(=O)C(C)CC(=O)N(Cc1cccc(C)c1)C(C)C (stereo not given),-3.335
COC(=O)c1cccc(C(=O)N(CCC#N)CC(C)(C)C)c1,4.423
CN(Cc1cccc(C(N)=O)c1)Cc1nc2c(cnn2C)c(=O)[nH]1,-1.337
CN(Cc1cc(-c2ccccc2)no1)Cc1nccn1C,-8.351
Cc1nn(C)cc1S(=O)(=O)N(C)[C@@H]1CCC[C@@H](n2ccnc2)[C@@H]1O,14.75
CC(O)CN1CCN(C(=O)c2sccc2C2CC2)CC1 (stereo not given),2.259
O=C(CCNC(=O)C1CCCC1)NCc1cccnc1-n1cncn1,3.955
O=C1CCC2(CCCN(CCn3cc(Cl)cn3)C2)CN1C1CCCC1 (stereo not given),-13.22
CCCN(CC(F)(F)F)C(=O)c1cc(F)cc2[nH]cnc12,-4.184
c1ccc2c(Cc3nnc([C@H]4CCN(C5CCOCC5)C4)o3)c[nH]c2c1,10.93
[H][C@@]12CN(CC3CC3)C[C@]1([H])N(Cc1ccccc1OC)C(=O)O2,18.05
O=C1Nc2ccccc2CNC12CCN(CC1CC1)CC2,-12.62
O=C(NCc1nnnn1-c1ccccc1)c1ccc(C2CCCO2)s1 (stereo not given),16.55
Cc1nc(N2CCCC2)nc(C)c1NS(C)(=O)=O,8.366
Cc1ccc(N2CCN(C(=O)COc3ccccc3)CC2)nn1,0.3284
Cc1nonc1C1CCCN1C(=O)c1cn2ccsc2n1 (stereo not given),-4.539
O=C(Cn1nc2ccccc2n1)N1CCCn2cncc2C1,-48.09
Cc1nc(CCCN2CCOCC2)n(Cc2ccc(F)cc2)n1,13.36
CC1CN(C)c2ccccc2CN1C(=O)c1cscn1 (stereo not given),1.731
O=C(NC1CC1)c1cnc2n1CCCC2,-1.281
O=C(c1cc(C2CCCC2)no1)N1CCCCC1,-47.45
COc1c(C2CCCN2C(=O)c2ccc(Cl)o2)c(C)nn1C (stereo not given),10.24
[H][C@@]12C[C@@H](O)CN1C[C@@H](Cc1ccccc1)N(Cc1ccccc1Cl)C2,1.415
OC1CCN(C2CCN(c3ccc(Cn4ccnc4)cn3)CC2)CC1,3.311
CC(C(=O)NCCc1cccs1)N1CCC(n2ccnc2)CC1 (stereo not given),-2.731
Cn1nc(C(=O)NCc2ccccc2C(F)(F)F)c2c1CCS(=O)(=O)C2,10.3
CCC(=O)Nc1c(C)nn(COc2cccc(F)c2)c1C,-37.8
O=C(NCCOc1ccc(Cl)cn1)NCCc1ccccn1,-4.869
Nc1nccc(C2CCCCN2Cc2cccc(F)c2)n1 (stereo not given),9.176
CCc1cnc(C)nc1NCCc1nc(N)cc(O)n1,19.85
c1ccc(Cc2noc(CCNC3CCOC4(CCOCC4)C3)n2)cc1 (stereo not given),-9.913
COc1ccc(CNc2cnn(CC(F)F)c2)cc1,-6.768
Cc1cc(C2CCCN2Cc2cc(-c3ccco3)on2)on1 (stereo not given),-2.949
COCC(=O)N1CCC(c2nc3ccc(-c4ccccc4)cn3n2)CC1,-17.58
Cc1nc(CNC(=O)NCc2ccc(OCC3CC3)nc2)cs1,2.694
O=C(CSC1CCc2ccccc2NC1=O)NC1CC1 (stereo not given),-10.81
CC(C(=O)NS(=O)(=O)Cc1cc(-c2ccccc2)no1)C1CC1 (stereo not given),11.77
CCS(=O)(=O)CC(=O)Nc1ccc2oc(C3CC3)nc2c1,2.05
CCn1nc2c(cc1=O)CN(Cc1nc(N)c3ccccc3n1)CC2,-2.08
O=C(NC1CC(=O)N(C2CC2)C1)c1ccc(Cl)s1 (stereo not given),-9.155
Cc1cc(N2CCSCC2)ccc1NC(=O)N(CCO)C1CC1,4.253
O=C(CC1CC1)N1CCCn2c(nnc2Cn2cccc2)C1,-5.663
Cc1noc(C)c1CN1CCc2ncc(Cn3cccn3)n2CC1.O=C(O)C(F)(F)F,-0.3157
CN(C(=O)NCc1nccn1Cc1ccccc1)C1CC1,9.013
CCc1nnc2n1CCN(C(=O)C1CCC(n3cccc3)CC1)C2 (stereo not given),-2.411
O=C(O)C(F)(F)F.O=C(O)C(F)(F)F.[H][C@@]12C[C@@H](Oc3cncnc3)CN1CCN(c1ncccn1)C2,-5.606
O=C(O)C(F)(F)F.[H][C@@]12CCN(c3ncccn3)[C@]1([H])CC[C@H](C(=O)NCc1cccs1)O2,-6.619
CC(C)n1ccnc1CN1CCCN(C(=O)c2ncccc2O)CC1,-7.512

6 of the entries, repeated:

structure	Percent Effect
CC1CN(c2ccc(CNC(=O)NCCn3ccnc3)cn2)CCO1 (stereo not given)	3.481
O=C(CC1CC1)N1CCCn2c(nnc2Cn2cccc2)C1	-5.663
Cc1cc(C2CCCN2Cc2cc(-c3ccco3)on2)on1 (stereo not given)	-2.949
Cc1cc(CS(=O)(=O)N(C)C(C)c2ccc(F)cc2)on1 (stereo not given)	6.195
O=C(O)C(F)(F)F.[H][C@@]12C[C@H](C(=O)N(C)C)CN(Cc3ccc4c(c3)OCO4)[C@]1([H])CCO2	-17.19
c1ccc(Cc2noc(CCNC3CCOC4(CCOCC4)C3)n2)cc1 (stereo not given)	-9.913

Source: ChEMBL document CHEMBL3988442, “University of Dundee, Small-Polar-MMV Screening Library” (2021).